# Percent effect of library compounds

Chains of the proteins cited; added tags and fusions are not shown. Residues count along the entry.
UniProt P9WFT3, whole entry: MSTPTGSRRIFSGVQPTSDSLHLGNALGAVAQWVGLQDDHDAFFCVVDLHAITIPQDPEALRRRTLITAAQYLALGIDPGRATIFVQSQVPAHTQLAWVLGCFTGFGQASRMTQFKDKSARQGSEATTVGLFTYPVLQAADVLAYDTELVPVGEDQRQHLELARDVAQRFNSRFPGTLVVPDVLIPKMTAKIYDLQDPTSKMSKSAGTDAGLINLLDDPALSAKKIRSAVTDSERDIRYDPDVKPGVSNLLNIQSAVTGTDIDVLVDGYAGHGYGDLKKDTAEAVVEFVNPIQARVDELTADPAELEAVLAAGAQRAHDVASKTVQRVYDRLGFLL
UniProt P9WNZ1, whole entry: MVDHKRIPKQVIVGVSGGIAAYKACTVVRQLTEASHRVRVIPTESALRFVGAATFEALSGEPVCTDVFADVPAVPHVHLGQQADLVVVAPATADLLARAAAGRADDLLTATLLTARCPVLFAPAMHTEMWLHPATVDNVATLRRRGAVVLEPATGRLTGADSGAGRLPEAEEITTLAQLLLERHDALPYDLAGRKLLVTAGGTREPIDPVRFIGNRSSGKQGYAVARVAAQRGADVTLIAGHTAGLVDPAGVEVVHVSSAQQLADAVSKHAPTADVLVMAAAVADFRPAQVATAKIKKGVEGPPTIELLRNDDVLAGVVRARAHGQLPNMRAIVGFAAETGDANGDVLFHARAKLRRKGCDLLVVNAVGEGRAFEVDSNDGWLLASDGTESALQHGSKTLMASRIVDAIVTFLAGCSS
UniProt A4I591, 1-473: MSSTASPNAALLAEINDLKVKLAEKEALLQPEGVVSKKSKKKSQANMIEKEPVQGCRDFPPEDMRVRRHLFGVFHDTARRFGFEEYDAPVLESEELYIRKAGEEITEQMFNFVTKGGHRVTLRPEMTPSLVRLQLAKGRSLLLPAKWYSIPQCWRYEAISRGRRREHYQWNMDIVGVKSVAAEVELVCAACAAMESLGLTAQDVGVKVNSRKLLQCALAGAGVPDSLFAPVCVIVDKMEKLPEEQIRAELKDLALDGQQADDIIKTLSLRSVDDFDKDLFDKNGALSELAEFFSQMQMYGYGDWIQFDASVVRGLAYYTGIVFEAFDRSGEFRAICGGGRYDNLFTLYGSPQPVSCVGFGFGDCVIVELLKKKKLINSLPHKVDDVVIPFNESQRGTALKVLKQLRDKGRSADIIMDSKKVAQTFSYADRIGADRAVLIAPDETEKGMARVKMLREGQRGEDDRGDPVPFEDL
UniProt I6X8D2, whole entry: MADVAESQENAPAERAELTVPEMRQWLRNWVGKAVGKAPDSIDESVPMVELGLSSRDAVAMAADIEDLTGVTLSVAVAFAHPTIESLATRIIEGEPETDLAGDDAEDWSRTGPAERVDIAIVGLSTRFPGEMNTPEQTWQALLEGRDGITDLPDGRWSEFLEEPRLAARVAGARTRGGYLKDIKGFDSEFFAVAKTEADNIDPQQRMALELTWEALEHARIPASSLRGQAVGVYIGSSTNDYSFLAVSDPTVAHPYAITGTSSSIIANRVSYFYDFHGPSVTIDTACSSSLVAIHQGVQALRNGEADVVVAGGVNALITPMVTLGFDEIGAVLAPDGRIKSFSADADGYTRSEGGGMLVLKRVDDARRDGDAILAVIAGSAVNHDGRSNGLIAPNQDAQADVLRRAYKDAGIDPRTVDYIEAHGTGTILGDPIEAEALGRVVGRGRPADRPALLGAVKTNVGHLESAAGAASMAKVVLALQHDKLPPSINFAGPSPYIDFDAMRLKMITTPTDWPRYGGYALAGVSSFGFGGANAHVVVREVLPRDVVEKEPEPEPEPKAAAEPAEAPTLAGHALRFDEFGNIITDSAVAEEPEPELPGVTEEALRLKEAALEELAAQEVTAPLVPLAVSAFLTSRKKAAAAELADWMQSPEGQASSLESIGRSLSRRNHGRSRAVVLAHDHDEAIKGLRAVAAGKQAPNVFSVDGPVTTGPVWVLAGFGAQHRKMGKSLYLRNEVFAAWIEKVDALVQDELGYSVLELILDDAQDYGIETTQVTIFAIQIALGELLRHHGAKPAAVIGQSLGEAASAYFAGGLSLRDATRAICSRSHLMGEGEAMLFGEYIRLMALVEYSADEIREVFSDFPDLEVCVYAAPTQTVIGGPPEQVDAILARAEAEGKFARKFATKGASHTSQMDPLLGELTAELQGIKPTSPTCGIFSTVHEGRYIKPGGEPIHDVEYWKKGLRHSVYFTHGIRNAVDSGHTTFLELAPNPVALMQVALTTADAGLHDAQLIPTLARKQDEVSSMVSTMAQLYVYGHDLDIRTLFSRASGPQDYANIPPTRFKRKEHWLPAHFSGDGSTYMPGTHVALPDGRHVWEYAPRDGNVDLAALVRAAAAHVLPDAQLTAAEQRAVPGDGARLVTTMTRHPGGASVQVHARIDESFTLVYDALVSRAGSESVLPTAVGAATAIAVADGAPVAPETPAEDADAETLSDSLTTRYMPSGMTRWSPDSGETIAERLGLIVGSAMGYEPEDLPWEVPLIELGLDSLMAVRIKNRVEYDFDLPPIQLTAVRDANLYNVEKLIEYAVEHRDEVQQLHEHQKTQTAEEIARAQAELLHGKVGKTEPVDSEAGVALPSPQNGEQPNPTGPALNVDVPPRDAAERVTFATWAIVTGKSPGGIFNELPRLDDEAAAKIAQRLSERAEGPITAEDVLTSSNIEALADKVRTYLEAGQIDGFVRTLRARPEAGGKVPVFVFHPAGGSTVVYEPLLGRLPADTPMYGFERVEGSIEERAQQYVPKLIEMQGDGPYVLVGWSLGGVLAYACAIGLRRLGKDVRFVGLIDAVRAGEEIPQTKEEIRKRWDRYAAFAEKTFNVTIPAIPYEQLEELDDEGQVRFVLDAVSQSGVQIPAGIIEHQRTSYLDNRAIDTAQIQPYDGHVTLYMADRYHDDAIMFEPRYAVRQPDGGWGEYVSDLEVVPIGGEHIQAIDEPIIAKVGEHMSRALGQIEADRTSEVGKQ

Source: ChEMBL document CHEMBL3988442, “University of Dundee, Small-Polar-MMV Screening Library” (2021).

The filed quantity is “Percent Effect” (%). How 0% and 100% were set is not recorded. Most values in the screen are low, and negative values occur. The compounds are a random part of those screened. A dash means the value is not listed here; it may have been measured.

A: 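Enzyme assay of tryptophanyl-tRNA synthetase; the read-out is not stated. Target: Tryptophan-tRNA ligase, Mycobacterium tuberculosis (UniProt P9WFT3). Compounds at 10 µM. Higher most likely means stronger inhibition; the record gives no direction and few retests gave an IC50. Size under these conditions: about 65,000 compounds, about 64 of them at 50% or above in at least one test.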
B: 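Enzyme assay of CoaBC with a phosphate dye (Biomol Green) read at 650 nm. Target: Coenzyme A biosynthesis protein CoaBC, Mycobacterium tuberculosis (UniProt P9WNZ1). Tested at 30 µM. Direction is inferred from only a few compounds that gave an IC50; most scored high, so higher reads as stronger inhibition. Most strong results did not repeat in a second test. Size under these conditions: about 67,000 compounds, about 40 of them at 50% or above in at least one test.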
C: 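Enzyme assay of histidyl-tRNA synthetase; the read-out is not stated. Target: Histidine-tRNA ligase, Leishmania infantum (UniProt A4I591). Compounds at 30 µM. The record gives no direction; compounds that gave an IC50 in retests scored well above the rest, so higher reads as stronger inhibition. The assay is labelled LdHisRS but filed under L. infantum. About 69,000 compounds were tested under these conditions; 0.6% (about 410) showed 50% or more at least once.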
D: 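Enzyme assay of the thioesterase domain of polyketide synthase 13; the read-out is not stated. Target: Polyketide synthase Pks13, Mycobacterium tuberculosis (UniProt I6X8D2). Tested at 30 µM. The record gives no direction; the compounds picked for IC50 retests had high values, so higher reads as stronger inhibition. Of about 67,000 compounds tested this way, about 300 (0.46%) reached 50% or more in at least one test.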

structure | A | B | C | D
COCCN1CCC2(CC1)COc1ccccc1S(=O)(=O)N(C)C2 | -0.4537 | -6.42 | 11.11 | -9.354
COc1ccc2c(ccn2CCN)c1 | -0.201 | -10.36 | 25.24 | -25.02
Cc1nc(CN2CCc3c(nc(C4CC4)n3C)C2)nc2ccccc12 | -2.724 | 11.37 | 40.71 | 0.05111
COCCCN(Cc1ccncc1)C(=O)C1COc2ccccc2C1 (stereo not shown) | -2.315 | -0.2457 | 7.143 | 4.794
O=S(=O)(Cc1ccccc1CN1CC[C@H](CO)[C@H](O)C1)c1ccccc1 | -0.6388 | 0.861 | 16.13 | -
CC1CN(C)CCN1C(=O)Nc1nc(-c2ccc[nH]2)cs1 (stereo not shown) | 8.996 | 6.429 | 40.82 | 21.04
CC1CCc2[nH]c(=O)c(C(=O)N3CCc4ccccc4C3)cc2C1 (stereo not shown) | -0.5424 | 3.924 | 2.5 | -4.552
c1cnn(CC2CCCN2Cc2ccc(-n3cccn3)cc2)c1 (stereo not shown) | 28.14 | 0.7168 | 13.46 | -14
COCCCn1c(CN2CCCC(O)C2)cnc1S(=O)(=O)C1CCCC1 (stereo not shown) | 2.403 | 6.818 | 12.26 | -20.69
Fc1ccc(NCc2ncc[nH]2)cc1Br | -3.212 | 7.692 | 5.128 | -17.46
O=S(=O)(c1ccccc1)N1C[C@@H]2CCCCN(Cc3cccs3)[C@@H]2C1 | -6.946 | 11.66 | 12.77 | -1.035
CC(C)(C)c1cnc(CN(Cc2cccnc2)CC2CCCO2)o1 (stereo not shown) | -3.671 | -0.8861 | 3.614 | -10.76
COc1c(CNCc2ccc3c(c2)OCO3)c(C(C)C)nn1C | 28.7 | 3.259 | 13.16 | -39.69
O=C(NC1CCCC1)c1nc(COc2ccc3c(c2)OCO3)no1 | -1.555 | -1.816 | 5.435 | 14.34
Cc1cnc(N2CCC(c3ccncc3)CC2)nc1-c1ccnn1C | -2.122 | 12.21 | 6.667 | -33.27
Cc1nc(N(C)C)cc(C2(C)CCCNC2)n1 (stereo not shown) | -1.893 | 5.085 | 13.99 | -7.546
CCOCCC(=O)NCC1COc2c(cccc2OC)C1 (stereo not shown) | -4.503 | -5.14 | 27.63 | -26.7
Cn1cc(CNC2CCc3c(ccc(=O)n3Cc3ccncc3)C2)cn1 (stereo not shown) | - | 5.322 | 9.901 | -
CCS(=O)(=O)N(C)C1CCN(C(=O)c2cc(C)cc(C)c2)CC1 | 2.922 | 11.11 | 13.39 | -13.19
CCC(CO)N(Cc1ccsc1)Cc1ccc(-c2ccn[nH]2)s1 (stereo not shown) | -7.143 | 3.909 | -11.83 | -3.464
CCc1ncc(C(=O)N2CCN(c3nc(C)cc(OC)n3)CC2)s1 | 3.561 | -1.621 | 9.524 | -11.11
CCn1c(C2CCCNC2)nn(Cc2ccc(C(=O)NC)o2)c1=O (stereo not shown) | 6.692 | 6.2 | 28.57 | -17.72
N#Cc1cc(F)ccc1Cn1cncn1 | 8.259 | 12.3 | 13.39 | -21.85
COCc1ccc(CNc2cncc(-n3cccn3)n2)cc1 | 1.015 | 1.195 | 9.615 | 52.17
CN(Cc1ccc([S+](C)[O-])cc1)c1ccccn1 (stereo not shown) | -1.204 | -0.2439 | 14.4 | -7.177
Cc1cccc2c1nc(CCO)n2-c1ccc(C(=O)N2CCCC2)o1 | 11.37 | 8.436 | 38.71 | 2.01
O=C1Nc2ccccc2/C1=C1\CCCCN1 | 0.712 | -0.9639 | 7.692 | 14.02
O=C(c1c(F)cccc1Br)N1CCCOCC1 | -4.08 | 5.198 | 4 | 5.071
Cn1cc(C(=O)N2CCN(Cc3ccccn3)CC2)ccc1=O | 15.19 | 10.12 | -6.306 | -17.6
CS(=O)(=O)CCC(=O)N1CCC(c2cccc(F)c2)C1 (stereo not shown) | 11.55 | 1.914 | 15 | 6.088
O=C(C1=CCCC1)N1C[C@@H]2COC[C@]2(COCC2CC2)C1 | - | 2.222 | 2.727 | -3.035
Cc1nc(N2CCN(C)CC2)ncc1C(=O)N1C[C@@H](C)[C@@](C)(O)C1 | 12.07 | 7.143 | 8.333 | 1.131
COc1ccc(CNC(=O)Cn2ccc3sccc3c2=O)cc1 | -2.644 | -2.058 | -5.435 | -7.7
CNS(=O)(=O)CCN1CC(c2ccccc2)(c2ccccc2)CCC1=O | -4.259 | 0 | 12.68 | 24.3
Cn1ccnc1CNCCNc1ncc(Cl)cc1Cl | 1.534 | 1.656 | 1.036 | -30.34
COCCc1noc(Cn2c(=O)[nH]c3ccccc32)n1 | 3.698 | 2.066 | 17.39 | -4.815
COc1cccc([C@@H]2CCN(Cc3cccc(C)n3)C[C@H]2O)c1 | -1.236 | 2.81 | 15.58 | -27.11
CC(C)c1cnc(CN2CCCC(c3cc(C(N)=O)[nH]n3)C2)o1 (stereo not shown) | -0.4788 | 8.772 | 16.07 | -7.915
CC[C@@]1(O)CCN(CCCOc2ccc(C(N)=O)cc2)C[C@H]1O | 0.8639 | 2.913 | 11.9 | -1.764
Cc1nc(COc2cccc(C#N)c2)no1 | 5.361 | 0.8347 | 28.79 | -0.954
COCC(=O)N1CC(=O)c2sc(Nc3ccc(F)cc3F)nc2C1 | - | 2.289 | 11.43 | 38.65
COc1ccc(-n2ccc(C(=O)NCCn3ccnc3)n2)cc1 | -2.652 | 1.956 | 11.4 | -23.05
CCc1nc2ccccc2c(=O)n1CC1(O)CCN(S(C)(=O)=O)CC1 | 0.9197 | 3.611 | 25 | -26.35
Cc1ccc(C(=O)N2CCC3(CCC(=O)N(C(C)C)C3)CC2)c(O)c1 | -0.3819 | 1.531 | 1.235 | -8.372
CCS(=O)(=O)N1CCN(C(=O)c2ccc(Cn3cc(Br)cn3)cc2)CC1 | -2.676 | 0.4073 | 11.76 | -2.501
COC(=O)N1CCN(Cc2ccccc2C(C)(C)C#N)CC1 | -1.868 | 2.195 | 15 | -53.04
CC(C)C(=O)NCc1ccc(-n2cncn2)nc1 | -1.383 | -1.08 | 4.959 | -2.113
O=C(CC1Cn2ncnc2NC1=O)Nc1ccccc1 (stereo not shown) | 1.988 | -1.579 | 4.138 | -12.45
Cc1nn(CCC#N)c(C)c1[C@@H]1C=C[C@@H](NCc2ccc(F)cc2)C1 | -4.593 | 0.2257 | 25 | -22.52
O=C(NCC1(CO)CC1)c1ccccc1C(F)(F)F | 3.127 | 0.6242 | 11.57 | -17.77
CCOC1CC2(CCN(c3cnccn3)CC2)c2ccccc21 (stereo not shown) | -1.453 | - | 23.93 | -26.43
Cc1nnc(C(NS(=O)(=O)c2cc(C)c(F)cc2F)C(C)C)[nH]1 (stereo not shown) | 0.7597 | -5.837 | 13.51 | 1.714
CC(C)C(=O)N1CCCC(c2cc(C(F)F)n3ncnc3n2)C1 (stereo not shown) | -4.431 | -1.111 | 0 | -27.6
CC(C)NC(=O)c1nn(C)c(NC(=O)Cc2ccccc2)c1F | 3.083 | 5.724 | 19.35 | -22.33
O=C(c1ccncc1)N1CCOC2(COCCN(c3cccnc3)C2)C1 (stereo not shown) | -3.607 | -6.314 | 13.16 | -24.79
OC1CCN(Cc2c(-c3ccco3)[nH]c3ncccc23)CC1 | - | 1.942 | 30.43 | 23.05
CCOC(=O)C(C)Nc1cccc(COCc2ccco2)c1 (stereo not shown) | -2.973 | 1.453 | 8.696 | 20.19
COc1ccccc1OCCNC(=O)N1CCC(n2cncn2)CC1 | 2.035 | 10.06 | 10.53 | -9.547

3 of the entries, repeated:

{"structure": "COc1ccc2c(ccn2CCN)c1", "A": -0.201, "B": -10.36, "C": 25.24, "D": -25.02}
{"structure": "CCc1ncc(C(=O)N2CCN(c3nc(C)cc(OC)n3)CC2)s1", "A": 3.561, "B": -1.621, "C": 9.524, "D": -11.11}
{"structure": "O=C(CC1Cn2ncnc2NC1=O)Nc1ccccc1", "stereo": "stereo not shown", "A": 1.988, "B": -1.579, "C": 4.138, "D": -12.45}